Results are given in words; binding and its absence hold for the method and conditions named. Binding seen in cells or lysates may run through a third protein. Some entries that bind do so weakly or less than the wild type.

Chains of the proteins cited; added tags and fusions are not shown. Residues count along the entry.
UniProt P84091: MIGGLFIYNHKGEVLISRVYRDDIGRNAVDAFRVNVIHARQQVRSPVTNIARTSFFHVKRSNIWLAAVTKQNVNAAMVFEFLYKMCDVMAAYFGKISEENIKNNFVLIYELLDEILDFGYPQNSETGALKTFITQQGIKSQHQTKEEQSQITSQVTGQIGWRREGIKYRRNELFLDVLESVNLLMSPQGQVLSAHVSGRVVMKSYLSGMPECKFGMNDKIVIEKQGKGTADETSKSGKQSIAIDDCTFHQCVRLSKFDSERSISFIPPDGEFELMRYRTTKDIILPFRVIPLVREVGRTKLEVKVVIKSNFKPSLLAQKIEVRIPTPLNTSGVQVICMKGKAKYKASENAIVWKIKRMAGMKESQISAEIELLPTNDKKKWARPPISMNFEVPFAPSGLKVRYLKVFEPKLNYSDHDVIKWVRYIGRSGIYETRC
UniProt Q811D0: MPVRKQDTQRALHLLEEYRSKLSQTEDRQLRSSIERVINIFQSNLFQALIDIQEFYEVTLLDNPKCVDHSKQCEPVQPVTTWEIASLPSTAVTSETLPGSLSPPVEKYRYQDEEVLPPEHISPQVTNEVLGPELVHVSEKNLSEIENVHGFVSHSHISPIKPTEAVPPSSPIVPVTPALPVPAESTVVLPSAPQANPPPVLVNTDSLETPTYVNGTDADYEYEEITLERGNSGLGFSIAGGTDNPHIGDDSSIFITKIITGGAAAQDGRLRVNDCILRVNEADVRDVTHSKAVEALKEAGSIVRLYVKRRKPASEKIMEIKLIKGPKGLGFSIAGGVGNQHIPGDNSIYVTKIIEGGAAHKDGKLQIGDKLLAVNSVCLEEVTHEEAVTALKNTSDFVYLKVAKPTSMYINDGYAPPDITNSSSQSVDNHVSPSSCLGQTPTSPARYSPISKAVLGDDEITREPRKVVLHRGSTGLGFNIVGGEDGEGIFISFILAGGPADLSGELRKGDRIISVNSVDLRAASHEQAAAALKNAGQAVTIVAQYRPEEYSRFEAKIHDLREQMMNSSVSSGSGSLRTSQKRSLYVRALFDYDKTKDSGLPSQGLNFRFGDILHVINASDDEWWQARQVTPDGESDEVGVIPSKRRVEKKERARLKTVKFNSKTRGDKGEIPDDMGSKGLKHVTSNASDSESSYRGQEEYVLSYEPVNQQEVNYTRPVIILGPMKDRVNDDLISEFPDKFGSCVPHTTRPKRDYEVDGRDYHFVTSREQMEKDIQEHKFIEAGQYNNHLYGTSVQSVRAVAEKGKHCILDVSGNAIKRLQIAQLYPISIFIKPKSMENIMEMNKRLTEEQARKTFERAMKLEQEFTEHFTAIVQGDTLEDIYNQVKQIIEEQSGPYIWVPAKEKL
UniProt P12023, residues 18-770: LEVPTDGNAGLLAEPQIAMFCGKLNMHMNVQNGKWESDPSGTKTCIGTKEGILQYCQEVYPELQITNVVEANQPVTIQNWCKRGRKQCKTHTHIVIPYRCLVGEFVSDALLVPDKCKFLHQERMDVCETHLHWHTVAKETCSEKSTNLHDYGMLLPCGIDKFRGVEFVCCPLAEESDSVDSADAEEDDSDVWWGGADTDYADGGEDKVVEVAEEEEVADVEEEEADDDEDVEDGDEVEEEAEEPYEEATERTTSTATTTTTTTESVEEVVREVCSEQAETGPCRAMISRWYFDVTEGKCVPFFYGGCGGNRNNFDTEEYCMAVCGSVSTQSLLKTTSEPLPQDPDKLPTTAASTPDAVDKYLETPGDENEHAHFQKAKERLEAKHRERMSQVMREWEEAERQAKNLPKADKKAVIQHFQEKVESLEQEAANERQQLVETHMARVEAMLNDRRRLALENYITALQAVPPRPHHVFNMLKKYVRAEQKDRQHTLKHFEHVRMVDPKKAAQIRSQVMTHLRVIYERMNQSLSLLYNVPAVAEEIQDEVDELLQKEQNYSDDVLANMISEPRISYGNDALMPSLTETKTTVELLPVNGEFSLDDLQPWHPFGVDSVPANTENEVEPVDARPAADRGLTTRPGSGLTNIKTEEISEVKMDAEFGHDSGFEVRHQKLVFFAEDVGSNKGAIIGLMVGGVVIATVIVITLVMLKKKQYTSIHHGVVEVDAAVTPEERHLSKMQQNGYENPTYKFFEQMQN
UniProt O35598, residues 215-749: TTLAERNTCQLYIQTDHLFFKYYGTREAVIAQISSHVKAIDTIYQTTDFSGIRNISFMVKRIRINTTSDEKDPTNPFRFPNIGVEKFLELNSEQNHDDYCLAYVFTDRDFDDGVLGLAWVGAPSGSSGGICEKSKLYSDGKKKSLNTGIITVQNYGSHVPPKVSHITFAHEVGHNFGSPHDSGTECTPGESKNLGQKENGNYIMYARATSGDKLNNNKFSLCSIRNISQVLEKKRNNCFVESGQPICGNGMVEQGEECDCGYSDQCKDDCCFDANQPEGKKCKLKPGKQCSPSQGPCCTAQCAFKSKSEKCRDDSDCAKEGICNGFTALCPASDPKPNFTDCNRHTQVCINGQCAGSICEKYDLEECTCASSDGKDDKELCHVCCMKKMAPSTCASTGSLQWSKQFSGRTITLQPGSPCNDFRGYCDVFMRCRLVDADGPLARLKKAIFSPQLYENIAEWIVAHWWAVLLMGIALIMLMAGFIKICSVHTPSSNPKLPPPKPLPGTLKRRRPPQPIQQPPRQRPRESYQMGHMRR

For two substances, binding results are on record in patent publication EP3727588B1, “ACTIVATOR PEPTIDES OF THE ENZYME ADAM 10 AND RELATED USES IN THE TREATMENT OF ALZHEIMER'S DISEASE” (UNIVERSITA' DEGLI STUDI DI MILANO, priority 2017, dated 2019).

Assay [1] has as its target µ2 subunit of AP2 (mouse) (mouse) (UniProt P84091). The assay is described as follows: co-IP with anti-APP antibody; mouse brain homogenate.
Assay [2] addresses SAP97 (mouse) (mouse) (UniProt Q811D0). The assay is described as follows: co-IP with anti-ADAM10, SAP97 blot; mouse brain homogenate.

Consider “APP (mouse) (from UniProt P12023 18-770)”, for which the binding entry in assay [1] was “binds”.

Turning to “ADAM10 (mouse) (from UniProt O35598 215-749) (enzyme)”, the binding entry in assay [2] is recorded as “binds”.
